Binding signal data for 54 sequences are collected here from publication PMC7819943, “Rice protein-binding microarrays: a tool to detect cis-acting elements near promoter regions in rice”.

Amino acid sequences for entries named in this document (tags omitted).
UniProt Q0JBA9, entry or part of it: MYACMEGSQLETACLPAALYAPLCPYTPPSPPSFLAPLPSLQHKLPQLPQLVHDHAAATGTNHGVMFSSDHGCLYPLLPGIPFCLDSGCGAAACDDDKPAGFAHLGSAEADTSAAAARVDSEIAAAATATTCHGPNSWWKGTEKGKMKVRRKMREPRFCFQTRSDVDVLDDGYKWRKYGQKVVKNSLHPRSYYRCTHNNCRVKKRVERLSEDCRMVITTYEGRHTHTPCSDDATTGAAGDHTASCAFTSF

The other results are listed elsewhere or left out.

In the test the target is OsWRKY34 (Oryza sativa, UniProt Q0JBA9 1-250). As to the kind of experiment: protein-binding microarray (RPBM); PBS, 2% BSA, 51.3 ng/ul salmon testes DNA, 50 uM zinc acetate, 200 nM TF, 25 C, 1 h; high values mean tight binding. To be noted: protein: recombinant; tags: N-terminal polyhistidine and DsRed monomer fusion (pET32a); label: CyDye5-dUTP incorporated in the synthesized complementary strand; 3' TTTTT single-stranded linker to array surface; dsDNA, one strand shown. In short, it runs like this:
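The binding signal for each feature is its fluorescence intensity in arbitrary units. An Axon 4000B scanner was used to read a custom Agilent array that had been made double-stranded with Cy5-dUTP primer extension, blocked with 2% BSA, incubated at 25 °C for 1 h with 200 nM protein in PBS, 2% BSA, salmon testes DNA and 50 µM zinc acetate, and washed. The protein was an N-terminal polyhistidine–DsRed transcription factor fusion from E. coli BL21-CodonPlus, purified on Ni–NTA.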
Regarding “GGCTCCACCGTCTCCACCGCCACCACCGTCTCCACCACCACGGAGTCACCTAGTGCAG”, the binding signal is 11100 fluorescence intensity (a.u.).
Under “TGGCAAAATCGGTTAGTCGTCCTTATTCTTATTCCACGGTCGGAGTCACCTAGTGCAG” stands 9990 fluorescence intensity (a.u.); under “CCACTACTTATTCAATCACAACCCTTCACTACTCATTTCTCGGAGTCACCTAGTGCAG”, 10400 fluorescence intensity (a.u.).
Regarding “CCAGCCACCAGCTCGATCCTTTCTTCCTCGTTCTCGCGATCGGAGTCACCTAGTGCAG”, the binding signal is 8050 fluorescence intensity (a.u.).
In the case of “ACCGATCGTACGTCTCCTCAGCTCATCCGCTTGCCTCGTCCGGAGTCACCTAGTGCAG”, the binding signal is 11700 fluorescence intensity (a.u.).
As to “AAGGGTGTGTTAGAGAGAGATGGAGATGTGCATGGATGACCGGAGTCACCTAGTGCAG”, the binding signal was 8130 fluorescence intensity (a.u.).
“CAGCCACACGCATGCGCACTTCTCCCACTCTCTCTCTCTCCGGAGTCACCTAGTGCAG”: the binding signal was 8100 fluorescence intensity (a.u.).
For the sequence “GCCGGCGCTCTCGCAGTTGCCGCCGCCGCCGCCGCGAACGCGGAGTCACCTAGTGCAG”, the binding signal is 8820 fluorescence intensity (a.u.).
Under “TTTGCCATTGTTCATTGGTTTTCTCTCGTATCTCTAAGACCGGAGTCACCTAGTGCAG” stands 9360 fluorescence intensity (a.u.); under “GCAGCGAGTGCTCTGTCTTTGCCCATCGCCTGACGCCGCACGGAGTCACCTAGTGCAG”, 8560 fluorescence intensity (a.u.).
With “TTGAGGGGAGGGTAGTAGTAGCTAAGTTAGGGCAAAGATGCGGAGTCACCTAGTGCAG”, the binding signal is 12600 fluorescence intensity (a.u.).
Regarding “CGGGTCAATGCTGAGATAAGGTCCGGTGCTGAGTGGCGCACGGAGTCACCTAGTGCAG”, the binding signal is 8680 fluorescence intensity (a.u.).
Under “GAGTCCGCCTCCACCTCCACCTCTGCTTCAGCCACAGATGCGGAGTCACCTAGTGCAG” stands 8080 fluorescence intensity (a.u.); under “CCAAAACGCAGAACTCGTTTCCCGTCTCGTCCGCATCGATCGGAGTCACCTAGTGCAG”, 8120 fluorescence intensity (a.u.); under “TGTTCGACATGTTGCGCATATTTGATCTGTTCATGTTTTACGGAGTCACCTAGTGCAG”, 10100 fluorescence intensity (a.u.).
“GGCCCACCGTCGCACTCGCGCCTTCCGCTGCTCCGTTGCCCGGAGTCACCTAGTGCAG”: the binding signal is 8880 fluorescence intensity (a.u.).
In the case of “CTCCTTTTCAATTTCGCTTTTCTTTCATACGGAATTCCTTCGGAGTCACCTAGTGCAG” it was 8330 fluorescence intensity (a.u.); in that of “TGTGGAGTTTGAGGATTGCACAATAATCTCAGGGGCGGGCCGGAGTCACCTAGTGCAG”, 8590 fluorescence intensity (a.u.); in that of “ATTTCTTTTTGTTGTGTTATCGTGTTGTTTCGTCACTAGTCGGAGTCACCTAGTGCAG”, 19600 fluorescence intensity (a.u.).
Under “ACCTGTGATGAGTTTCCTTCATCACCCACGTCTCTTTCTACGGAGTCACCTAGTGCAG” stands 10500 fluorescence intensity (a.u.); under “GAGTTGGTTCCTTCTGTCCTCCATAGATATATTACAGTTTCGGAGTCACCTAGTGCAG”, 8160 fluorescence intensity (a.u.).
As for “ATTATTTTTTATATGCTGATGCCTCTAACACGTCTCTCCACGGAGTCACCTAGTGCAG”, the binding signal is 8850 fluorescence intensity (a.u.).
On to “ATTATATGCTAATTACTTTCTCGTTTTACGTACACCAACTCGGAGTCACCTAGTGCAG”, for which the binding signal was 8420 fluorescence intensity (a.u.).
On to “GTAATTCTTTCCATTTCCAAAAAGGCACGCTCTGAGTTACCGGAGTCACCTAGTGCAG”, for which the binding signal is 8110 fluorescence intensity (a.u.).
In the case of “TCGGGTTTCTTTTGCCCCTTTTCTTTCGCCAGCTTTTGCACGGAGTCACCTAGTGCAG”, the binding signal was 11200 fluorescence intensity (a.u.).
Under “TTTTCTTGGTGGTTCTAGAGGTTGTTTTGCATATTTAATACGGAGTCACCTAGTGCAG” stands 11900 fluorescence intensity (a.u.); under “TTGGTCATCGTCTTCGCCTCCGACGCCGCCTGCTTCTTCGCGGAGTCACCTAGTGCAG”, 11000 fluorescence intensity (a.u.); under “TTTGGTCGATTGCTGCTGCTGTGGTGGTGGTGGACTGGTGCGGAGTCACCTAGTGCAG”, 10800 fluorescence intensity (a.u.).
As to “TTTCACATTATATATGTTTTGGACTCCATATCCATATGAACGGAGTCACCTAGTGCAG”, the binding signal is 8020 fluorescence intensity (a.u.).
As to “ATTGGGTTTAGTACTTTGGTTTGACTATGTTGAAGATAAACGGAGTCACCTAGTGCAG”, the binding signal was 8770 fluorescence intensity (a.u.).
In the case of “CTGGCGAGCAGAGCAGGGGAGGGGAGGGGAGGGGATCCTGCGGAGTCACCTAGTGCAG”, the binding signal is 15800 fluorescence intensity (a.u.).
In the case of “GGGTTTGTCCCTAATTGGTCTTTTGCCGACGAGCTCCATGCGGAGTCACCTAGTGCAG” it was 10000 fluorescence intensity (a.u.); in that of “GCTCAGAACATCGGATTCCCCATCCCTAAATATTTAACACCGGAGTCACCTAGTGCAG”, 9080 fluorescence intensity (a.u.).
Turning to “TATGGTTTCTGTCATTCCGTCAGTGTATATATATCCAGCACGGAGTCACCTAGTGCAG”, the binding signal is 8380 fluorescence intensity (a.u.).
With “GAATTACATTAAACCTCATGTGTTCCCCATGATAGATGGACGGAGTCACCTAGTGCAG”, the binding signal is 8440 fluorescence intensity (a.u.).
For the sequence “TCGTTCGCCACGAGCTCCCGTTTTGACCACCGCATCCTCCCGGAGTCACCTAGTGCAG”, the binding signal is 9010 fluorescence intensity (a.u.).
Take “CCCTCAAGACGATCTGAGCCGTCCGATCCATCTCCCGCACCGGAGTCACCTAGTGCAG”: the binding signal was 8210 fluorescence intensity (a.u.).
On to “CCTGCTCTGTTTCCGAACTCGATCTCCGCCTCCGACTTTGCGGAGTCACCTAGTGCAG”, for which the binding signal was 9670 fluorescence intensity (a.u.).
On to “CGTTGAGTTGGTTTAGGGGTGGACTGATTTGCCTTTGCCCCGGAGTCACCTAGTGCAG”, for which the binding signal was 12900 fluorescence intensity (a.u.).
As for “TAACGGATTCCATCTCTTGATTTCTACTACCACCGTTCGCCGGAGTCACCTAGTGCAG”, the binding signal was 9880 fluorescence intensity (a.u.).
As to “AACCCACCTGCACGCACCGTCCTTACCTCTGTTCGATTGACGGAGTCACCTAGTGCAG”, the binding signal was 16800 fluorescence intensity (a.u.).
In the case of “CGTTTCAAAATGTTTGACACCGTTGACTTTTTAGTACATGCGGAGTCACCTAGTGCAG”, the binding signal was 35900 fluorescence intensity (a.u.).
For “GACAATGGTGGGGAGTTTGATGCTGGTGTACCGTAAGATCCGGAGTCACCTAGTGCAG”, the binding signal is 9360 fluorescence intensity (a.u.).
Consider “CGCCACTGATCATTTTTTTTTACCTACACTTCTGCTGAACCGGAGTCACCTAGTGCAG”, for which the binding signal was 12200 fluorescence intensity (a.u.).
As for “CTCATCCCCGTGCGCTGCTGCTGCTGTGTCGTCGTCGTCGCGGAGTCACCTAGTGCAG”, the binding signal is 8350 fluorescence intensity (a.u.).
For “TTGCAGCGGCAATATCACTAGGTGGTGCACTTGTTTTTGCCGGAGTCACCTAGTGCAG”, the binding signal was 9180 fluorescence intensity (a.u.).
Under “ATTCTCTGACCTAAATGTCTATTCCACGTTCAACCATTTTCGGAGTCACCTAGTGCAG” stands 10200 fluorescence intensity (a.u.); under “ACGCAACTATCGATCTACTTCCGGTTTATGTCTTTGTTGCCGGAGTCACCTAGTGCAG”, 11200 fluorescence intensity (a.u.).
Take “CACTGATTTTTTTTCTTCTCTCCTTGGAATGATTGCAAAGCGGAGTCACCTAGTGCAG”: the binding signal was 8620 fluorescence intensity (a.u.).
For the sequence “TTTCACAGGCTCTTATTTCTCTCTTTCCTTGACTCTCTCTCGGAGTCACCTAGTGCAG”, the binding signal was 9110 fluorescence intensity (a.u.).
With “CTTCCTCTTCCTCTTTTCTCGGTGTCTGAATCTCTCCTGACGGAGTCACCTAGTGCAG”, the binding signal was 9350 fluorescence intensity (a.u.).
In the case of “CAAGCCAGCCTCTCATCCTCGCGTCACCTGAACTATATATCGGAGTCACCTAGTGCAG”, the binding signal is 8150 fluorescence intensity (a.u.).
Turning to “AGTTGTGGCAAGGATGTGAAAGGGAAGGCATACATGTTCGCGGAGTCACCTAGTGCAG”, the binding signal was 8350 fluorescence intensity (a.u.).
With “GTCGGTCGCCACCGCTTCTCCGCCCGTCTGCTGCTCCTCCCGGAGTCACCTAGTGCAG”, the binding signal is 8130 fluorescence intensity (a.u.).
